Laboratory results reported in publication PMC3155019, “Dynamics of the Phosphoinositide 3-Kinase p110δ Interaction with p85α and Membranes Reveals Aspects of Regulation Distinct from p110α” (Structure(London, England:1993), 2011).
Results are given in words; binding and its absence hold for the method and conditions named. Some entries that bind do so weakly or less than the wild type.

Chains of the proteins cited; added tags and fusions are not shown. Lines headed by an entry give the natural chain unless they say otherwise; changes in a name come on top.
UniProt O00329: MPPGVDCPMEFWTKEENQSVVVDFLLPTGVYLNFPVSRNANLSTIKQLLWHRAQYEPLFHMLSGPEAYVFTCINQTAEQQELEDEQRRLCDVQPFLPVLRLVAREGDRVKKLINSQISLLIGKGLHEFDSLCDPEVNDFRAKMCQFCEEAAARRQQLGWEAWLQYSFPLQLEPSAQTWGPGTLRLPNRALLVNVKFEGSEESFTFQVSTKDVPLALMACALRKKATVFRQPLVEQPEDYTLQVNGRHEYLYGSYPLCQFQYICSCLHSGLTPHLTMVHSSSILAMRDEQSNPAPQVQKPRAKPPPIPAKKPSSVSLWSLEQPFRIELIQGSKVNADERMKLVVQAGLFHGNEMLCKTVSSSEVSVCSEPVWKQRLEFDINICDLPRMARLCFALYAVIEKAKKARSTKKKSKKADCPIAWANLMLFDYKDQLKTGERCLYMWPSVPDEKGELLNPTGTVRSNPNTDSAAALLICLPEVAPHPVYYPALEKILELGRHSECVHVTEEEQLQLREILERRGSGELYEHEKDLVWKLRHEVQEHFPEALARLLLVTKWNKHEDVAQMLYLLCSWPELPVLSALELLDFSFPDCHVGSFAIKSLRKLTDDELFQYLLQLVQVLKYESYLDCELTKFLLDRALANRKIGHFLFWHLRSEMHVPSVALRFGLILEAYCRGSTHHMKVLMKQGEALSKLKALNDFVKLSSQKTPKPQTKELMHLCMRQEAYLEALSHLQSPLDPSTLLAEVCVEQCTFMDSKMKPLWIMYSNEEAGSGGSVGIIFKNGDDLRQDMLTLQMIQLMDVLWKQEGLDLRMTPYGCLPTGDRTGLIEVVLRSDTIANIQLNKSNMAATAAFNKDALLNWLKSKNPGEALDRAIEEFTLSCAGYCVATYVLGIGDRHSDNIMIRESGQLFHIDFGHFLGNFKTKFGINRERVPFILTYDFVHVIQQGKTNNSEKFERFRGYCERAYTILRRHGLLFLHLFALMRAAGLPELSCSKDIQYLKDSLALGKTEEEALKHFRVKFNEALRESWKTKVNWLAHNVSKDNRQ

Tests used:
[1] = molecular target: full length p110δ/p85α K379E, Y685A double mutant complex (UniProt O00329); assay: HDX-MS; purified full length p110δ/p85α complexes (wild type, K379E, Y685A, double mutant) with or without PDGFR pY; two time points (3 and 1000 s); both purified
[2] = molecular target: full length p110δ/p85α complex, wild type (UniProt O00329); assay: as above
[3] = molecular target: full length p110δ/p85α K379E complex (UniProt O00329); assay: as above
[4] = molecular target: full length p110δ/p85α Y685A complex (UniProt O00329); assay: as above
[5] = molecular target: p110δ+p85α nicSH2 complex (human | , UniProt O00329 1-1044; P27986 322-724); assay: HDX-MS; purified p110δ+nicSH2 complex with or without PDGFR pY (200 μM before addition of deuterium, 40 μM by the legends), equilibrated 10 min; 82% D2O, 10 mM HEPES pD 7.2, 50 mM NaCl, 2 mM DTT; 3 to 3000 s at 23°C; both purified

Measured: binding

B1: PDGFR bis-phosphorylated pY peptide (residues 735–767, with pY740 and pY751) (peptide)
peptide: ESDGGYMDMSKDESIDYVPMLDMKGDIKYADIE
modifications: phosphotyrosine at 740 and 751 (pY740, pY751)
binds: all assays above
